Laboratory results as given in US20070036794A1.
These are yes or no findings as the source states them, for the method shown. Some entries that bind do so weakly or less than the wild type.

By UniProt entry, the sequences of proteins in these tests, tags left out. Where a name states a change or a piece, a line headed by the entry shows the natural chain unless it says otherwise.
UniProt Q16288: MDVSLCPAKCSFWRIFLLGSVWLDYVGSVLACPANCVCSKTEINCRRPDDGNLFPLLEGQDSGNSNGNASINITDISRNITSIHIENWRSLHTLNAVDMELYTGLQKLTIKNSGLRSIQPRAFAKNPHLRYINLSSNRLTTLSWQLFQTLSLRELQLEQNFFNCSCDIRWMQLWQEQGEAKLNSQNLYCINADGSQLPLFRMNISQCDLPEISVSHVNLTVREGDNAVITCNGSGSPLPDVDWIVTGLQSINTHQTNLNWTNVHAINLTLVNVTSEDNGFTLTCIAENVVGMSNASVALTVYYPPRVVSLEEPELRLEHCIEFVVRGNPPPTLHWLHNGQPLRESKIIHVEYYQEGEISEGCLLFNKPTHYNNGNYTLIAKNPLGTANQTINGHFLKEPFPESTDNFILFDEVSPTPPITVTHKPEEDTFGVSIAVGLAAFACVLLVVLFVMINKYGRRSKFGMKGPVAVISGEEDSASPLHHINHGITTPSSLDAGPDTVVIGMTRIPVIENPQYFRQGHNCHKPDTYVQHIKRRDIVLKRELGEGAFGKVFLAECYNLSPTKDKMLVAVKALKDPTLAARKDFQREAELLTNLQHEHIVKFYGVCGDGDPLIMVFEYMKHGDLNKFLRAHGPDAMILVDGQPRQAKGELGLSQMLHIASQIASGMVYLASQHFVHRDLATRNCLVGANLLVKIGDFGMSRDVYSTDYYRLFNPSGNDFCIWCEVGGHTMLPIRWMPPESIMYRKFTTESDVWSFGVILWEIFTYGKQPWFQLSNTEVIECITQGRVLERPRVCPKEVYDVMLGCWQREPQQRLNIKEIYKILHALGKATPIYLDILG

Experiments:
[1] = target: gD-tagged trkC (human trkC-gD) (human) (UniProt Q16288); test: direct ELISA on immobilized human trkC-gD, Mab 1 µg/ml (FIG. 3)
[2] = target: gD-tagged trkC (human trkC-gD) (human) (UniProt Q16288); test: direct ELISA on immobilized human trkC-gD
[3] = target: gD-tagged trkC (human trkC-gD) (human) (UniProt Q16288); test: direct ELISA: coated human trkC-gD (1 µg/ml), MAb 1 µg/ml, HRP conjugate

Measured: binding

B1: anti-trkC agonist monoclonal antibody 2253 (antibody, mouse IgG1, V domains shown)
VH: QVQLQQSGAELMQPGASVKISCKSTGYTFSNFWIEWVKQRPGHGLEWIGEILPGSDNTNYNEKFKGKATFTADTSSNTAYMQLSSLTSEDSAVYYCARKNRNYYGNYVVWGAGTTLTVSS
VL: QIVLTQSPAIMSASPGEKVTITCSASSSVSYMYWFQQKPGTSPKLWIYSTSNLASGVPARFSGSGSGTSYSLTISRMEAEDAATYYCQQRSSYPLTFGAGTKLELKR
binds: all assays above

B2: anti-trkC agonist monoclonal antibody 2349 (antibody, human IgG4, V domains shown)
VH: QVQLQESGPGLVKPSQTLSLTCTVSGGSISSGYYYWSWIRQHPGKGLEWIGYIYYSGSTYYNPSLKSRLTISVDTSKNQFSLKLSSVTAADTAVYYCARERIAAAGTDYYYNGLAVWGQGTTVTVSS
VL: GIVLTQSPGTLSLSPGERATFSCRASQSGSSTYLAWYQQKPGQAPRLLIYGASSRATGIPDRFSGSGSGTDFTLTISRLEPEDFAVYYCQQYGRSPPITFGQGTRLEIKR
binds: all assays above
